Measured values taken from patent publication CN107383198A.
No constants are given. Whether binding was seen depends on the method and setting. Some results given as binding are weak or reduced against the parent protein; the word gives no strength.

Columns and labels:
CysC标准品(众红自制) (human) = target: T1, CysC标准品(众红自制) (human) (UniProt P01034); experiment: colloidal gold sandwich lateral-flow card, C12 as gold-labelled antibody, CysC standard at 7, 1 and 0 mg/L
T1 sequence (looked up): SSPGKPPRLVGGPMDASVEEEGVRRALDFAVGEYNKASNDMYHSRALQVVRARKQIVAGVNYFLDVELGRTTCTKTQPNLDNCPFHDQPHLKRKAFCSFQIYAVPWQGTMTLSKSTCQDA

[1] = target: T2, CysC重组蛋白 (recombinant CysC protein) (human) (UniProt P01034); experiment: colloidal gold sandwich lateral-flow card, C12 gold-labelled, recombinant CysC dilution series
T2 sequence (looked up): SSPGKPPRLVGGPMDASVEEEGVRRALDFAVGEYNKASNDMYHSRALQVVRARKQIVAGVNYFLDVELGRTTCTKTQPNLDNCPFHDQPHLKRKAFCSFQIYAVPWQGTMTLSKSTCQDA

B1: 单链抗体C12 (anti-human cystatin C scFv C12) (scFv)
scFv: QVQLQQPGSELVRPGTSVKLSCRASGYTFTSYWMHWVKQRHGQGLEWLGNVDPGSGTTNYEENFKTKGTLTVDTSSSTVYMHLSSLTSEDSAVYYCTAGFDYWGQGTTLTVSAGGGGSGGGGSGGGGSDIQMNQSPSSLSASLGDTITITCHASQNINVWLGWFQQKPENIPKLLIYKASTLHTGVPSRFSGSGSGTVFTLTISSPQPEDIATYYCQQGQTYPLTFGAGTKLEIK
binding (CysC标准品(众红自制) (human)): binds
binding [1]: binds
